# Among all 330,000 compounds or so, about 7,700 (2.3%) were called active. Inconclusive results, whose numbers are uncertain, are shown with a selection of clear calls. Calls come from the whole dose curve; as a rule, active = well fitted inhibition curve with a large enough effect; inconclusive = small, poorly fitted or top-dose-only effect, or effect the other way; inactive = flat fitted curve, though single readings scatter. Potencies beside an inconclusive call are fits to weak or partial responses and may not hold up.
# Test: qHTS screen for small molecules that inhibit ELG1-dependent DNA repair in human embryonic kidney (HEK293T) cells expressing luciferase-tagged ELG1; note: nearly all actives have a fitted effect of over 55% in size
# Settings: HEK293T ELG1-luciferase reporter, luminescence, 16 h, DNA damage induced by 5-fluorouridine; activity change, negative = inhibition: at 46.1 µM (top of the series)
# How it was run: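 Quantitative HTS, concentration-response format. 2,000 cells/well co-treated with 5-fluorouridine and compound, 16 hr in 5% CO2 at 37 °C; ONE-Glo luminescence read after 30 min.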
# % is set by controls: 0 for no effect and ±100 for the full control effect; potency is the fitted concentration of half-maximal effect.
Structure (SMILES),"activity change, negative = inhibition",Potency
Cc1ccnn1CC(=O)N/N=C/c1cccs1,inactive: 9.43%,–
C=CCc1c(C)nc(SCc2nc3ccccc3c(=O)[nH]2)[nH]c1=O,–,"inconclusive: 20.6 µM [activator, single point]"
CCCN1C(=O)c2cc(C(=O)NC3CCCCCC3)ccc2C1O (configuration not stated),–,"inconclusive: 13 µM [activator, partial curve]"
CC(C)(C)C1CCc2c(sc3nc(SCC(N)=O)nc(N)c23)C1 (configuration not stated),–,"inconclusive: 5.17 µM [activator, partial curve]"
O=C(Nc1ccc(F)cc1)Nc1ccc2c(c1)OCO2,inactive: 0.138%,–
CCN(CC)C(=S)SCC(=O)NC12CC3CC(CC(C3)C1)C2,inactive: 5.76%,–
CCCc1nc2ccccc2c(=O)n1NC(=O)c1c(O)c2ccccc2[nH]c1=O,–,"inconclusive: 16.4 µM [inhibitor, partial curve]"
O=C1c2ccccc2-c2c1cccc2C(=O)N1CCCCC1,–,"inconclusive: 23.1 µM [activator, single point]"
CCCC(=O)N1CCN(c2ccc(NC(=O)c3ccc4c(c3)OCCO4)cc2)CC1,–,"inconclusive: 3.66 µM [inhibitor, partial curve, poor fit]"
CN(C(=O)COC(=O)c1ccc(-c2ccc(O)cc2)cc1)C1CCS(=O)(=O)C1 (configuration not stated),–,"inconclusive: 16.4 µM [activator, single point]"
Cn1nc(C(C)(C)C)cc1C(=O)NCc1cc(F)cc2c1OCOC2,–,active: 2.59 µM
c1cnc2ccc(-c3ccc4ncccc4c3)cc2c1,–,"inconclusive: 5.01 µM [activator, partial curve, poor fit]"
COc1ccc(Cl)cc1NC(=O)CC1S/C(=N/N=C2CCCCCC2)NC1=O (configuration not stated),–,"inconclusive: 29.1 µM [inhibitor, partial curve, poor fit]"
c1csc(CSc2nnc3sc4ccccc4n23)c1,–,"inconclusive: 20.6 µM [activator, partial curve]"
COc1ccc(CCNC(=O)COC(=O)/C=C/c2ccc3c(c2)OCO3)cc1,–,"inconclusive: 18.3 µM [activator, single point]"
N#CC1=C(N)Oc2c(ccc3ccccc23)C1c1ccsc1 (configuration not stated),–,"inconclusive: 16.4 µM [activator, partial curve]"
O=c1c2ccccc2nnn1CSc1nnnn1-c1ccccc1,–,"inconclusive: 10 µM [activator, partial curve, poor fit]"
O=C(CSc1nnc(NC(=O)c2cccc(Cl)c2)s1)NCC1CCCO1 (configuration not stated),–,"inconclusive: 9.2 µM [activator, partial curve, poor fit]"
C/C(=N\NS(=O)(=O)c1ccc(C)cc1)c1cccs1,inactive: 8.99%,–
O=C(Nc1nc2ccc(F)cc2s1)C1CC(=O)N(c2ccc3c(c2)OCCO3)C1 (configuration not stated),–,"inconclusive: 20.6 µM [inhibitor, single point]"
COc1ccc(Cl)cc1S(=O)(=O)Nc1ncn[nH]1,inactive: 12.3%,–
O=C(Cn1nc(-c2ccccc2)oc1=O)OCC(=O)c1ccccc1,inactive: 17.2%,–
Cc1ccc(N(C)C(=O)N2CCN(S(=O)(=O)c3ccc4ccccc4c3)CC2)cc1,–,"inconclusive: 25.9 µM [inhibitor, single point]"

Structure (SMILES),"activity change, negative = inhibition",Potency
CCC(=O)NC(=S)Nc1ccc(NC(=O)c2ccco2)cc1,–,"inconclusive: 32.6 µM [activator, single point]"
Fc1cccc(NC(=S)Nc2cccnc2)c1,inactive: -3.43%,–
COc1ccc(NC(=O)C2=NNC(=O)CC2)cc1S(=O)(=O)N1CCCCC1,inactive: 0.964%,–
COc1ccc(S(=O)(=O)Nc2ccccc2C(=O)N2CCOCC2)cc1C,inactive: 18.2%,–
Cc1ccc(C2C3=C(CCCC3=O)Nc3nc(SCC(=O)NCc4ccco4)[nH]c(=O)c32)cc1 (configuration not stated),inactive: 16.8%,–
Cc1ccc(NC(=S)NCCN2CCOCC2)cc1C,–,"inconclusive: 16.4 µM [activator, partial curve, poor fit]"
N#Cc1ccccc1S(=O)(=O)N1CCN(C(=O)CCc2ccccc2)CC1,inactive: 15.9%,–
CCN(c1ccccc1)S(=O)(=O)c1ccc(OC)c(NC(=O)C2=NN(c3ccccc3)C(=O)CC2)c1,–,"inconclusive: 0.58 µM [inhibitor, full curve]"
Cc1ccc(-c2cc(C(=O)N3CCN(c4ccccc4O)CC3)c3ccccc3n2)cc1,–,"inconclusive: 32.6 µM [inhibitor, single point]"
Cc1ccc(C(=O)NCC(=O)Nc2cc(C)ccn2)cc1,–,"inconclusive: 16.4 µM [activator, partial curve]"
Cc1ccc(OC(=O)CCS(=O)(=O)c2ccc(C)cc2)cc1,–,"inconclusive: 10.3 µM [activator, partial curve, poor fit]"
CN(Cc1ccccc1)C(=O)C1CCN(S(=O)(=O)c2ccc(-n3cnnn3)cc2)CC1,–,"inconclusive: 20.6 µM [inhibitor, partial curve]"
COc1ccc(NC(=O)CCSc2cc(C)c3ccccc3n2)cc1,–,"inconclusive: 29.1 µM [activator, single point]"
O=C(OCC#CCSc1nnc(-c2cccc3ccccc23)o1)c1cc2ccccc2o1,–,"inconclusive: 20.6 µM [activator, single point]"
Cn1c(C(=O)N2CCN(C(=O)c3ccco3)CC2)cc2c(=O)n(C)c3ccccc3c21,–,"inconclusive: 20.6 µM [inhibitor, partial curve]"
COc1ccc(NC(=S)N2CCC(C(O)(c3ccccc3)c3ccccc3)CC2)cc1,inactive: -26.7%,–
CC1CCCCN1C(=O)CSc1nnc(-c2cccnc2)o1 (configuration not stated),–,"inconclusive: 14.6 µM [activator, partial curve, poor fit]"
COc1ccc(-c2occ(C(=O)O)c2C(=O)O)cc1,–,"inconclusive: 20.6 µM [activator, single point]"
Cc1nnc(N/N=C/c2ccc([N+](=O)[O-])cc2)n1N,inactive: -12.1%,–
CCOc1ccc(S(=O)(=O)N2CCOCC2)cc1NC(=O)CSCc1ccc(C)cc1,inactive: -28.2%,–
COc1ccc(N2CCN(C(=O)COC(=O)c3ccco3)CC2)cc1,–,"inconclusive: 16.4 µM [activator, partial curve, poor fit]"
O=C(CN1CCN(c2ccc(O)cc2)CC1)Nc1ccc(S(=O)(=O)N2CCCC2)cc1,–,"inconclusive: 25.9 µM [inhibitor, partial curve, poor fit]"
C(=C/c1nccc2c1[nH]c1ccccc12)/c1ccc2c(c1)OCO2,–,"inconclusive: 23.1 µM [activator, partial curve]"

# An excerpt from the list above, as a working copy:
Structure (SMILES),"activity change, negative = inhibition",Potency
CCC(=O)NC(=S)Nc1ccc(NC(=O)c2ccco2)cc1,–,"inconclusive: 32.6 µM [activator, single point]"
Fc1cccc(NC(=S)Nc2cccnc2)c1,inactive: -3.43%,–
COc1ccc(NC(=O)C2=NNC(=O)CC2)cc1S(=O)(=O)N1CCCCC1,inactive: 0.964%,–

# 3 structures out of the list, ordered by number of heavy atoms, largest number first:
Structure (SMILES),"activity change, negative = inhibition",Potency
CN(Cc1ccccc1)C(=O)C1CCN(S(=O)(=O)c2ccc(-n3cnnn3)cc2)CC1,–,"inconclusive: 20.6 µM [inhibitor, partial curve]"
COc1ccc(NC(=O)C2=NNC(=O)CC2)cc1S(=O)(=O)N1CCCCC1,inactive: 0.964%,–
COc1ccc(N2CCN(C(=O)COC(=O)c3ccco3)CC2)cc1,–,"inconclusive: 16.4 µM [activator, partial curve, poor fit]"

# More entries:

Structure (SMILES),"activity change, negative = inhibition",Potency
CCC(CO)n1c(SCc2cc([N+](=O)[O-])cc3c2OCOC3)nc2ccccc2c1=O (configuration not stated),–,"inconclusive: 25.9 µM [inhibitor, partial curve, poor fit]"
CC(C)(CCC(=S)N1CCOCC1)C1CCCCC1,–,"inconclusive: 25.9 µM [activator, single point]"
CCCNC(=O)C(Cc1cccc(Br)c1)NC(=O)c1ccc(C#N)cc1 (configuration not stated),–,"inconclusive: 11.6 µM [activator, partial curve, poor fit]"
COc1ccc(/[N+]([O-])=C/c2ccco2)cc1,–,"inconclusive: 10.3 µM [activator, partial curve, poor fit]"
Cc1ccc(-n2nc3c(=O)n(CCCC(=O)NCc4cccc(F)c4)nc(C)c3c2C)cc1,inactive: -2.37%,–
O=C(NCCNC(=O)c1cc(OCC(F)(F)F)ccc1OCC(F)(F)F)Nc1cccc(C(F)(F)F)c1,–,"inconclusive: 4.11 µM [inhibitor, partial curve, poor fit]"
O=C(CSc1nc2ccccc2c(=O)[nH]1)N1CCN(S(=O)(=O)c2ccccc2)CC1,–,"inconclusive: 1.16 µM [activator, single point]"
CCc1cc(Cn2nc(-c3ccccc3)cc2C(=O)NCc2cccs2)on1,–,"inconclusive: 3.16 µM [inhibitor, single point]"
CC1(C)CC(=O)C=C(NNC(=O)c2cccnc2)C1,–,"inconclusive: 3.26 µM [inhibitor, single point]"
COc1cccc(C(=O)Nc2nc(SCc3ccc(Cl)cc3)n[nH]2)c1,–,"inconclusive: 20.6 µM [activator, partial curve]"
CC(=O)N=c1sc2ccccc2n1C,–,"inconclusive: 22.4 µM [activator, single point]"
CCOC(=O)c1sc(NC(=O)CSc2nc3c(cc2C#N)CCCCCC3)c(C#N)c1C,–,"inconclusive: 6.51 µM [inhibitor, partial curve]"
COc1ccc(-[n+]2c(C)cc(/C=C3\Sc4ccccc4N3C)cc2C)cc1,–,active: 18.3 µM
COc1ccc(C(=O)Nc2ccccc2C(=O)NCc2ccco2)cc1,inactive: -5.84%,–
CCOc1ccc(S(=O)(=O)NCCC(=O)N2CC=C(c3ccccc3)CC2)cc1,–,"inconclusive: 20.6 µM [inhibitor, single point]"
CCOc1c(OC)cccc1C1CC(=O)Nc2cc3c(cc21)OCCO3 (configuration not stated),–,"inconclusive: 16.4 µM [inhibitor, single point]"
Fc1ccc(COc2cccc(CNCc3ccncc3)c2)cc1,–,"inconclusive: 5.17 µM [inhibitor, full curve]"
Cc1cc2oc(C(=O)N(Cc3cccs3)C3CCS(=O)(=O)C3)cc(=O)c2cc1Cl (configuration not stated),–,"inconclusive: 29.1 µM [inhibitor, single point]"
CC1CC(C)(C)NC(=S)N1CCCC(=O)Nc1ccc2c(c1)OCCO2 (configuration not stated),–,"inconclusive: 29.1 µM [activator, single point]"
COC(=O)c1c(-c2ccccc2)nn(-c2ccccc2)c1C(=O)OC,inactive: -7.88%,–
O=C(Nc1nccs1)c1sc2ccccc2c1Cl,–,"inconclusive: 0.651 µM [activator, partial curve]"

# Reference: PubChem BioAssay AID504467 (National Center for Advancing Translational Sciences (NCATS), 2011)
